Reference: PMC6794377

Tests used:
[1] = target: T1, TLN161, N-terminal appended domain of hThrRS-L (Met1-Ile161), Gal4 DNA binding domain fusion (human) (UniProt A2RTX5); assay: two-hybrid; pairwise: pGADT7 construct and pGBKT7 construct together in Y2HGold; growth on QDO/X/A (SD/QDO/X) plates
T1 sequence: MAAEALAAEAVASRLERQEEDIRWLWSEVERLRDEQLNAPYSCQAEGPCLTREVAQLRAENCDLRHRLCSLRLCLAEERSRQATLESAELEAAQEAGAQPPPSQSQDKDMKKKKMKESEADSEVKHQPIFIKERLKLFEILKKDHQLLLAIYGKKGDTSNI

[2] = target: T2, native p43 (AIMP1), endogenous in human cells (human (endogenous in HEK293T and HeLa)) (UniProt Q12904); assay: co-IP; transfected HEK293T lysate, IP with anti-p43 antibodies; western blotting
T2 sequence: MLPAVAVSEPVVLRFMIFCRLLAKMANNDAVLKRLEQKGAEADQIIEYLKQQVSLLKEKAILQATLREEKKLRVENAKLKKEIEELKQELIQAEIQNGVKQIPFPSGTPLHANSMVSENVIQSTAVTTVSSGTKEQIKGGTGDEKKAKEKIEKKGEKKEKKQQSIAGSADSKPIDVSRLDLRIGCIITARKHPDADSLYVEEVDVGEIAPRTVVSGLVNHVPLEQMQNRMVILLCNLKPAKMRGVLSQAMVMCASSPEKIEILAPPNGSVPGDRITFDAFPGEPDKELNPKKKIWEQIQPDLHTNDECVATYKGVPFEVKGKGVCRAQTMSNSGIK

| binding [1] | binding [2] | Substance |
| --- | --- | --- |
| binds | – | p43(26-78), Gal4 activation domain fusion (human) (domain or fragment) |
| – | no binding | α-tubulin, endogenous in HEK293T (human (endogenous in HEK293T)) |

Results are given in words; binding and its absence hold for the method and conditions named. For some assays here: Binding can be weak; no strength is given. For some assays here: Tags and fused reporters may be left off the sequences shown. For some assays here: In cells and extracts the contact can be indirect.
